PubChem BioAssay AID504804, Drosophila RNAi Screening Center, 2011

Assay: 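Knock-downs shielding fly cells from apoptosis caused by DNA damage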 (primary screen)
Cell system: Drosophila Kc cells
Reagent: long dsRNA against Drosophila genes, 0.5 µg dsRNA per well
Time to read-out: 96 h (48 h knock-down, then 48 h drug)
Treatment: doxorubicin 5 µg/ml for 48 h, added 48 h after dsRNA
Detection: 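Luminescent ATP counts per replicate, not normalised, reflecting viable cells after 48 h dsRNA knock-down followed by 48 h of 5 µg/ml doxorubicin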
Scale: raw ATP luminescence: higher = more viable cells, protection from doxorubicin
Hit rule: 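z-score of 2 or more over plate mean in both duplicates, retained only when retests and separate dsRNAs confirm the protection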
The deposit covers about 19,000 reagents; below is a random part of those that have a named target and a result. In the full data, 47 (0.25%) got an active call. 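Signals are raw, not normalised; exact z-scores behind calls not deposited; actives needed confirmation, so some wells reaching 2 SD are inactive.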 Reagents against one gene are numbered here.

The opening 2 records as a preview:
Ccp84Aa: raw ATP luminescence, replicate 1 = 68930; raw ATP luminescence, replicate 2 = 70613; Outcome = inactive
TwdlP: raw ATP luminescence, replicate 1 = 33490; raw ATP luminescence, replicate 2 = 50870; Outcome = inactive

The list itself, from the first entry:
Ccp84Aa: raw ATP luminescence, replicate 1 = 68930; raw ATP luminescence, replicate 2 = 70613; Outcome = inactive
TwdlP: raw ATP luminescence, replicate 1 = 33490; raw ATP luminescence, replicate 2 = 50870; Outcome = inactive
Polr3H: raw ATP luminescence, replicate 1 = 68300; raw ATP luminescence, replicate 2 = 52070; Outcome = inactive
gny: raw ATP luminescence, replicate 1 = 89247; raw ATP luminescence, replicate 2 = 56063; Outcome = inactive
Sos: raw ATP luminescence, replicate 1 = 17373; raw ATP luminescence, replicate 2 = 84783; Outcome = inactive
Kyat: raw ATP luminescence, replicate 1 = 51833; raw ATP luminescence, replicate 2 = 44843; Outcome = inactive
Vps37B: raw ATP luminescence, replicate 1 = 34357; raw ATP luminescence, replicate 2 = 31530; Outcome = inactive
loaf: raw ATP luminescence, replicate 1 = 1.77e5; raw ATP luminescence, replicate 2 = 1.92e5; Outcome = inactive
dpp #1: raw ATP luminescence, replicate 1 = 3.27e5; raw ATP luminescence, replicate 2 = 3.25e5; Outcome = inactive
dpp #2: raw ATP luminescence, replicate 1 = 3.09e5; raw ATP luminescence, replicate 2 = 3.11e5; Outcome = inactive
CG1440: raw ATP luminescence, replicate 1 = 42530; raw ATP luminescence, replicate 2 = 49850; Outcome = inactive
CG7294: raw ATP luminescence, replicate 1 = 50983; raw ATP luminescence, replicate 2 = 68013; Outcome = inactive
